Results published in publication PMC5622079, “Control of leucine-dependent mTORC1 pathway through chemical intervention of leucyl-tRNA synthetase and RagD interaction” (Nature Communications, 2017).
Results are given in words; binding and its absence hold for the method and conditions named. In cells and extracts the contact can be indirect. Some entries that bind do so weakly or less than the wild type.

Protein sequences, listed by entry. Tags and fused reporters are not part of them. Lines headed by an entry give the natural chain unless they say otherwise; changes in a name come on top. Chains listed by the source or under a name are the forms on record and can include a tag or linker. Residues count along the entry.
UniProt Q9P2J5: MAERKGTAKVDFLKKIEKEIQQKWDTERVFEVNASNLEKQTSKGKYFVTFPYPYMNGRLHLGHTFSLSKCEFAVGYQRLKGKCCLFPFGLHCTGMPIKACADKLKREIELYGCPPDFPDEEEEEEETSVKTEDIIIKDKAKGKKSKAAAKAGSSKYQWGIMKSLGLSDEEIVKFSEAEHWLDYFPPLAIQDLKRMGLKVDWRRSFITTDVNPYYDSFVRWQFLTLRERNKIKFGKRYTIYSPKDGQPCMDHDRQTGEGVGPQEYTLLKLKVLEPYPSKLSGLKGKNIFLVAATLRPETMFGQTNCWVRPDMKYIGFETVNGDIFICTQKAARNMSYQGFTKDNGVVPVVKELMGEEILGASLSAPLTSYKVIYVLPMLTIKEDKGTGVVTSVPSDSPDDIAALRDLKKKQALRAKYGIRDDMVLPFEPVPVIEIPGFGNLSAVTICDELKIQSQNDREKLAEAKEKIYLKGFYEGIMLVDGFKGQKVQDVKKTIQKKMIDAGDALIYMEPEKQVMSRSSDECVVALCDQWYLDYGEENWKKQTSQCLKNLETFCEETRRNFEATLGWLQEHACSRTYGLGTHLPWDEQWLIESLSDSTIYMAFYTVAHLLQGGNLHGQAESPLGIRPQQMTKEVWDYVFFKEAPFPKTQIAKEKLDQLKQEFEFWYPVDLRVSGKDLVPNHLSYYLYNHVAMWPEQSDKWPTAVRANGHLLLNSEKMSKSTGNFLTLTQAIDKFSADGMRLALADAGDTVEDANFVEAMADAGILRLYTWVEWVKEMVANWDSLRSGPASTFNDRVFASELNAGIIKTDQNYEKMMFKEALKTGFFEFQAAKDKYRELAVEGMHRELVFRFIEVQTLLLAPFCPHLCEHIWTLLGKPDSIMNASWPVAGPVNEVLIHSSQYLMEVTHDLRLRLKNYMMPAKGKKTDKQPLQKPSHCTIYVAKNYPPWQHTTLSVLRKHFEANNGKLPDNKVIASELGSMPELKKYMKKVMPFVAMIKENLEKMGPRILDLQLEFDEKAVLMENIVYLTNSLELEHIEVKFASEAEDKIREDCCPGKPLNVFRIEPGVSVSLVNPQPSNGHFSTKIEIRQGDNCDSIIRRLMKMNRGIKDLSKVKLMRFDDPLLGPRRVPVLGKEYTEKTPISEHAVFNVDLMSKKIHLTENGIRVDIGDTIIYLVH
GST-LRS (aa 951–1176), wild type: residues 951-1176 of Q9P2J5
GST-LRS (957–1176 aa): residues 957-1176 of Q9P2J5
GST-LRS (aa 951–1176) R956A (Q9P2J5, form named): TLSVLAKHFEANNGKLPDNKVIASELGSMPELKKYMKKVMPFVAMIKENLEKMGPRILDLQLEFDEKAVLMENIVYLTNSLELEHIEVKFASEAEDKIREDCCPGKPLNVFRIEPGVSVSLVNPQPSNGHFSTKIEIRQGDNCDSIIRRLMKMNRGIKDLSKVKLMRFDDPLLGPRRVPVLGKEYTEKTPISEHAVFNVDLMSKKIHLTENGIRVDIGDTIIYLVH
GST-LRS (aa 951–1176) K957A (Q9P2J5, form named): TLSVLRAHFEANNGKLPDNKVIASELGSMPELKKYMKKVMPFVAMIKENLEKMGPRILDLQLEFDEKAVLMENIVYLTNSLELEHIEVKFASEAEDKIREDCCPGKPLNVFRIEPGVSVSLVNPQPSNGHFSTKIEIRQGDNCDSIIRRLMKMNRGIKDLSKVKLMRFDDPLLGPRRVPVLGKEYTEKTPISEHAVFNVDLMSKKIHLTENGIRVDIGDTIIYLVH
GST-LRS (aa 951–1176) S974A (Q9P2J5, form named): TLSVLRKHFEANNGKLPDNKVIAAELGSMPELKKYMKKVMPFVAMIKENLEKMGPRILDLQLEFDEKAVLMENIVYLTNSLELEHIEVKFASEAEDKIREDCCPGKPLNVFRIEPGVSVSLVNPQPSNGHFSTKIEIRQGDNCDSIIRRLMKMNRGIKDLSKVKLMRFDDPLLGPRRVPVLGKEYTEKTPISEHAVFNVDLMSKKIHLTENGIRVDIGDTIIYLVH
UniProt Q9NQL2: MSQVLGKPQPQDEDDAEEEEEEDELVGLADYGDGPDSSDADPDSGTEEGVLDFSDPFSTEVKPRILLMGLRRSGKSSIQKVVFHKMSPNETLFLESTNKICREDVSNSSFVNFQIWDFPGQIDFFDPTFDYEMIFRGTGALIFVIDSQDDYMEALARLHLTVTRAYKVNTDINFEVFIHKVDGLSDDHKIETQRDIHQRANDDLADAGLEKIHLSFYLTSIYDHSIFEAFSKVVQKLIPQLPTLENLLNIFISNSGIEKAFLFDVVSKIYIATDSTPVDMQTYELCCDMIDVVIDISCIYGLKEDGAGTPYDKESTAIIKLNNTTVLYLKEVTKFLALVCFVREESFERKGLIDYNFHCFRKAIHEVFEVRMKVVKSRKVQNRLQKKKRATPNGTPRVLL

Experiments:
[1] = biological target: Myc-tagged LRS S953A (human) (UniProt Q9P2J5); test: co-IP; SW620 cells co-transfected with Myc-LRS (WT, S974A or S953A) and HA-RagD WT; treated or not with 10 μM BC-LI-0186 for 1 h; immunoprecipitation with anti-Myc antibody
[2] = biological target: Myc-tagged LRS WT (human) (UniProt Q9P2J5); test: as above
[3] = biological target: Myc-tagged LRS S974A (human) (UniProt Q9P2J5); test: as above
[4] = biological target: GST-LRS (aa 951–1176) R956A (human) (UniProt Q9P2J5); test: pull-down; purified GST or GST-LRS (aa 951–1176), WT or alanine mutants, incubated with Myc-RagD WT-transfected SW620 cell lysates; precipitated with glutathione sepharose beads; anti-Myc immunoblot; only the target purified
[5] = biological target: GST-LRS (aa 951–1176) K957A (human) (UniProt Q9P2J5); test: as above
[6] = biological target: GST-LRS (aa 951–1176), wild type (human) (UniProt Q9P2J5); test: as above
[7] = biological target: GST-LRS (aa 951–1176) S974A (human) (UniProt Q9P2J5); test: as above
[8] = biological target: GST-LRS (aa 951–1176) R956A (human) (UniProt Q9P2J5); test: pull-down; LRS WT and mutants with Myc-RagD, with or without BC-LI-0186; the text says in vitro pull-down, the legend co-immunoprecipitation
[9] = biological target: GST-LRS (aa 951–1176) K957A (human) (UniProt Q9P2J5); test: as above
[10] = biological target: GST-LRS (aa 951–1176), wild type (human) (UniProt Q9P2J5); test: as above
[11] = biological target: GST-LRS (aa 951–1176) S974A (human) (UniProt Q9P2J5); test: as above
[12] = biological target: GST-LRS (957–1176 aa) (human) (UniProt Q9P2J5); test: pull-down; in vitro pull-down of GST-LRS (957–1176 aa) and Myc-RagD with a series of BC-LI-0186 concentrations; band intensity of Myc-RagD quantified; only the target purified
[13] = biological target: Leucyl-tRNA synthetase (LRS), endogenous (human) (UniProt Q9P2J5); test: co-IP; endogenous proteins; cells treated or not with 10 μM BC-LI-0186 (or BC-LI-0198) for 1 h; lysates immunoprecipitated with anti-LRS, anti-RagD or anti-mTOR antibodies; immunoblot

Measured: binding

HA-tagged RagD WT (from UniProt Q9NQL2 1-400)
binds: [1] | [2] | [3]

Myc-RagD WT (from UniProt Q9NQL2 1-400)
not listed: [1] | [2] | [3] | [13]
binds: all other assays above

RagD, endogenous (from UniProt Q9NQL2 1-400)
binds: [13]
